At least one read-out could not be matched to a standard name with certainty.
How the values were obtained:
PC-3 = experiment: panel of 60 human tumor cell lines, growth inhibition (Prostate Cancer)
SF-268 = experiment: panel of 60 human tumor cell lines, growth inhibition (CNS Cancer)
SK-MEL-5 = experiment: panel of 60 human tumor cell lines, growth inhibition (Melanoma); details: SK-MEL-5
CCRF-CEM = experiment: panel of 60 human tumor cell lines, growth inhibition (Leukemia)
SR = experiment: as above
SF-539 = experiment: panel of 60 human tumor cell lines, growth inhibition (CNS Cancer)
SNB-19 = experiment: as above
MDA-MB-231/ATCC = experiment: panel of 60 human tumor cell lines, growth inhibition (Breast Cancer)
UO-31 = experiment: panel of 60 human tumor cell lines, growth inhibition (Renal Cancer)

C=C1C(=O)O[C@H]2[C@H]1CC/C(COC(=O)OCCCN1CCCCC1)=C\CC[C@@]1(C)O[C@@H]21 [JVM 2-26]
Percent Growth (PC-3; Log10 Concentration −4.0): −89% | Percent Growth (PC-3; Log10 Concentration −5.0): 66% | Percent Growth (PC-3; Log10 Concentration −6.0): 89% | Percent Growth (PC-3; Log10 Concentration −7.0): 93% | Percent Growth (PC-3; Log10 Concentration −8.0): 94% | Percent Growth (SF-268; Log10 Concentration −4.0): −83% | Percent Growth (SF-268; Log10 Concentration −5.0): 38% | Percent Growth (SF-268; Log10 Concentration −6.0): 95% | Percent Growth (SF-268; Log10 Concentration −7.0): 69% | Percent Growth (SF-268; Log10 Concentration −8.0): 93% | Percent Growth (SK-MEL-5; Log10 Concentration −4.0): −100% | Percent Growth (SK-MEL-5; Log10 Concentration −5.0): 54% | Percent Growth (SK-MEL-5; Log10 Concentration −6.0): 92% | Percent Growth (SK-MEL-5; Log10 Concentration −7.0): 96% | Percent Growth (SK-MEL-5; Log10 Concentration −8.0): 95% | Percent Growth (CCRF-CEM; Log10 Concentration −4.0): −56% | Percent Growth (CCRF-CEM; Log10 Concentration −5.0): −24% | Percent Growth (CCRF-CEM; Log10 Concentration −6.0): 75% | Percent Growth (CCRF-CEM; Log10 Concentration −7.0): 92% | Percent Growth (CCRF-CEM; Log10 Concentration −8.0): 95% | Percent Growth (SR; Log10 Concentration −4.0): −54% | Percent Growth (SR; Log10 Concentration −6.0): 74% | Percent Growth (SR; Log10 Concentration −7.0): 65% | Percent Growth (SR; Log10 Concentration −8.0): 88% | Percent Growth (SF-539; Log10 Concentration −4.0): −94% | Percent Growth (SF-539; Log10 Concentration −5.0): −5% | Percent Growth (SF-539; Log10 Concentration −6.0): 84% | Percent Growth (SF-539; Log10 Concentration −7.0): 136% | Percent Growth (SF-539; Log10 Concentration −8.0): 92% | Percent Growth (SNB-19; Log10 Concentration −4.0): −90% | Percent Growth (SNB-19; Log10 Concentration −5.0): 71% | Percent Growth (SNB-19; Log10 Concentration −6.0): 88% | Percent Growth (SNB-19; Log10 Concentration −7.0): 95% | Percent Growth (SNB-19; Log10 Concentration −8.0): 93% | Percent Growth (MDA-MB-231/ATCC; Log10 Concentration −4.0): −82% | Percent Growth (MDA-MB-231/ATCC; Log10 Concentration −5.0): 22% | Percent Growth (MDA-MB-231/ATCC; Log10 Concentration −6.0): 88% | Percent Growth (MDA-MB-231/ATCC; Log10 Concentration −7.0): 97% | Percent Growth (MDA-MB-231/ATCC; Log10 Concentration −8.0): 103% | Percent Growth (UO-31; Log10 Concentration −4.0): −79% | Percent Growth (UO-31; Log10 Concentration −5.0): 9% | Percent Growth (UO-31; Log10 Concentration −6.0): 75% | Percent Growth (UO-31; Log10 Concentration −7.0): 65% | Percent Growth (UO-31; Log10 Concentration −8.0): 84%

C=C1C(=O)O[C@H]2[C@H]1CC/C(COC(=O)NCCCCCCO)=C\CC[C@@]1(C)O[C@@H]21 [JVM 2-31]
Percent Growth (PC-3; Log10 Concentration −4.0): −78% | Percent Growth (PC-3; Log10 Concentration −5.0): 68% | Percent Growth (PC-3; Log10 Concentration −6.0): 96% | Percent Growth (PC-3; Log10 Concentration −7.0): 92% | Percent Growth (PC-3; Log10 Concentration −8.0): 90% | Percent Growth (SF-268; Log10 Concentration −4.0): −65% | Percent Growth (SF-268; Log10 Concentration −5.0): 46% | Percent Growth (SF-268; Log10 Concentration −6.0): 102% | Percent Growth (SF-268; Log10 Concentration −7.0): 103% | Percent Growth (SF-268; Log10 Concentration −8.0): 101% | Percent Growth (SK-MEL-5; Log10 Concentration −4.0): −83% | Percent Growth (SK-MEL-5; Log10 Concentration −5.0): 42% | Percent Growth (SK-MEL-5; Log10 Concentration −6.0): 90% | Percent Growth (SK-MEL-5; Log10 Concentration −7.0): 94% | Percent Growth (SK-MEL-5; Log10 Concentration −8.0): 95% | Percent Growth (CCRF-CEM; Log10 Concentration −4.0): −45% | Percent Growth (CCRF-CEM; Log10 Concentration −5.0): 1% | Percent Growth (CCRF-CEM; Log10 Concentration −6.0): 89% | Percent Growth (CCRF-CEM; Log10 Concentration −7.0): 107% | Percent Growth (CCRF-CEM; Log10 Concentration −8.0): 104% | Percent Growth (SR; Log10 Concentration −4.0): −43% | Percent Growth (SR; Log10 Concentration −5.0): 6% | Percent Growth (SR; Log10 Concentration −6.0): 76% | Percent Growth (SR; Log10 Concentration −7.0): 97% | Percent Growth (SR; Log10 Concentration −8.0): 93% | Percent Growth (SF-539; Log10 Concentration −4.0): −86% | Percent Growth (SF-539; Log10 Concentration −5.0): −7% | Percent Growth (SF-539; Log10 Concentration −6.0): 66% | Percent Growth (SF-539; Log10 Concentration −7.0): 92% | Percent Growth (SF-539; Log10 Concentration −8.0): 88% | Percent Growth (SNB-19; Log10 Concentration −4.0): −30% | Percent Growth (SNB-19; Log10 Concentration −5.0): 73% | Percent Growth (SNB-19; Log10 Concentration −6.0): 96% | Percent Growth (SNB-19; Log10 Concentration −7.0): 95% | Percent Growth (SNB-19; Log10 Concentration −8.0): 97% | Percent Growth (MDA-MB-231/ATCC; Log10 Concentration −4.0): −3% | Percent Growth (MDA-MB-231/ATCC; Log10 Concentration −5.0): 46% | Percent Growth (MDA-MB-231/ATCC; Log10 Concentration −6.0): 92% | Percent Growth (MDA-MB-231/ATCC; Log10 Concentration −7.0): 93% | Percent Growth (MDA-MB-231/ATCC; Log10 Concentration −8.0): 95% | Percent Growth (UO-31; Log10 Concentration −4.0): −72% | Percent Growth (UO-31; Log10 Concentration −5.0): 35% | Percent Growth (UO-31; Log10 Concentration −6.0): 102% | Percent Growth (UO-31; Log10 Concentration −7.0): 100% | Percent Growth (UO-31; Log10 Concentration −8.0): 96%
